In all, about 1,800 compounds went through this assay and fewer than 10 were called active.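 Rule for the calls: active = inhibition of granule release above a set limit; inactive = the rest.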 The list shows a part of the results.
Test: LAMP-1 surface externalization blockers in TALL-104 cells – cell-based, flow cytometry, validation set (AID 651664)
Settings: TALL-104 LAMP-1 externalization, at 15.2 µM, active compounds read high, stimulated with thapsigargin and PMA

inhibition, inactive:
Cn1c(OCc2ccco2)nc2c1c(=O)n(Cc1ccc(Cl)c(Cl)c1)c(=O)n2C -1.3%, COc1cc(CNCCc2ccccc2)ccc1OCC(=O)NC(C)(C)C -3%, Cc1cccc(CS(=O)(=O)Cc2ccc(C(=O)NCCN3CCCCC3C)o2)c1 (centres undefined) -3.7%, CC(=O)NC1C(=O)Nc2c(C)cc(C)cc21 (centres undefined) -0.4%, Cc1ccccc1-n1nnc2c(=O)oc3ccccc3c21 1.6%, COC(=O)C1=C(N)Oc2cc(C)n(Cc3ccco3)c(=O)c2C1c1cccc(Cl)c1 (centres undefined) -1.7%, CCOc1ccc(N=C2NC(=O)S/C2=C\c2ccc(O)cc2)cc1 -1%, CCOC(=O)c1ccc(N2C(=O)CC(C3CCCO3)C2=O)cc1 (centres undefined) 3.6%, OC(C#Cc1ccccn1)c1cccs1 (centres undefined) -1%, CC(=O)Nc1cccc(Oc2ccc3c(c2)C(=O)N(CCC(=O)O)C3=O)c1 0.5%, CCOC(=O)c1ccc(NC(=O)C2(c3ccccc3)CCOCC2)cc1 -4%, CCCc1ccc(C(C)NC(=O)c2cnccn2)cc1 (centres undefined) 2.4%, C/C(=C1/SC(=S)N(CCC(=O)O)C1=O)c1ccc(O)cc1 5.2%, CCn1c(=O)c2c3c(sc2n2c(=S)[nH]nc12)CCC3 1%, COc1cccc2[nH]c3c(=O)n(CCN(C)C)cnc3c12 -1.4%, Cc1nc(SCC(=O)Nc2ccc(N3CCOCC3)cc2)nc(C)c1C 4.1%, COc1cccc(C(C(=O)NC2CCCC2)N(Cc2ccccc2OC)C(=O)c2ccco2)c1 (centres undefined) -0.5%, Cc1c(OCc2ccccc2)c(=O)ccn1Cc1ccc(Cl)cc1 -0.7%, COc1ccc(NC(=O)c2ccccc2NC(=O)CSc2ccc(Cl)cc2)cc1 1%, O=C(NCCCN1CCN(c2ccccc2F)CC1)C1CCN(S(=O)(=O)N2CCOCC2)CC1 -0.9%, CCCCN(N=Nc1nonc1OC)c1nonc1OC -2.9%, COc1ccc(/C(O)=C2/C(=O)C(=O)N(CCN(C)C)C2c2ccc(OC)c(OC)c2)c(C)c1 (centres undefined) -0.5%, CCOC(=O)c1nn(-c2ccc(Cl)cc2)c2nc(Nc3ccccc3)cc(=O)n12 0.4%, Cc1cccc2cc(COC(=O)COc3ccccc3)c(=O)[nH]c12 -1.6%, Cc1sc(NC(=O)c2ccco2)nc1-c1ccccc1 2.7%, CCOC(=O)C1CCCN(Cc2nc(N)nc(Nc3ccccc3)n2)C1 (centres undefined) -2.8%, c1coc(-c2nc3nc4ccccc4n3nc2-c2ccco2)c1 1%, C=CCn1c(SC(C)C(=O)NCCC2=CCCCC2)nc2ccccc2c1=O (centres undefined) 2.9%, CCCCOCCCNC(=O)N[C@H](C(=O)OC)C(C)C -2.9%, Cc1ccc(C2C(C#N)=C(N)Oc3nc(-c4ccccc4)[nH]c32)o1 (centres undefined) -0.3%, O=C(NNC(=S)NCc1ccco1)c1ccc(Cl)s1 1.1%, Cc1ccccc1NC(=S)NN1CCN(C)CC1 1.1%, CC(C)C[C@H](NC(=O)NCCc1ccc(Cl)cc1)C(=O)O -1.5%, COc1ccc(CCNc2cc(-c3ccccc3)nc3ncnn23)cc1 -2.4%, COc1ccccc1NC(=O)c1c(C)oc2c1CCCC2 -2%, O=C(Nc1cc(Cl)ccc1Oc1ccccc1)c1cnccn1 1.1%, Cc1ccc(C(=O)NC(=S)Nc2ccccc2C(F)(F)F)cc1C -2.7%, CCOC(=O)c1[nH]c(C)c(C(=O)N2CCc3ccccc32)c1C 0.1%, COC(=O)c1nn(-c2ccccc2)c(Cl)c1/C=N/OC(=O)c1ccc(Cl)c(Cl)c1 -2.3%, O=C(Cn1cccc1C(=O)c1ccccc1)NCCN1CCCCCC1 -1.8%, CCCC(=O)Nc1cccc2c1CCCC2 0%, COc1ccc(C(NC(=O)c2ccc(-c3ccccc3)cc2)c2ccccc2)cc1 (centres undefined) -2.8%, CCCC1C(c2ccccc2)C(C#N)(C#N)C2(C#N)CC1(N)NC2=O (centres undefined) 0.6%, Cn1nnc(NC(=O)c2ccc3ccccc3c2)n1 -1.6%, Nn1c(-c2cccs2)nc2sc3c(c2c1=O)CCCC3 -2.9%, CC1CN(Cc2ccc(Cl)cc2Cl)CC(C)O1 (centres undefined) -2.2%, CCN(CC)c1ccc(CC(=O)NC(C)Cc2ccccc2)cc1 (centres undefined) -1%, O=C(NC(=S)Nc1ccc(N2CCCCC2)c(Cl)c1)c1cccs1 0.9%, CCc1nc(NCC2CCCO2)c2oc3ccccc3c2n1 (centres undefined) -1.9%, O=C(CSc1nc2ccccc2[nH]1)N1CCN(c2ccc(F)cc2)CC1 5.2%, Cc1c(NC(=O)N(C)C)c(=O)n(-c2ccccc2)n1C 0.9%, CCCS(=O)(=O)N1CCC(C(=O)NCCCOC(C)C)CC1 3%, O=C(O)COCCN1CCN(C(c2ccccc2)c2ccc(Cl)cc2)CC1 (centres undefined) 0.5%, Cc1nn(C)cc1CNC(=O)CCC(=O)O 5.3%, CCCn1c(N)c(C(=O)CSc2nnnn2-c2ccc(O)cc2)c(=O)n(C)c1=O 1.8%, CC1CN=C(NC2CCCCC2C)S1 (centres undefined) 3.8%, O=C(NCc1ccccc1)NC1(C(=O)N2CCN3CCCC3C2)CCCCC1 (centres undefined) 2.3%, c1ccc2c(c1)[nH]c1c(NCC3CCCO3)ncnc12 (centres undefined) 0.1%, CCOC(=O)C1CCN(C(=O)CN(c2cc(OC)ccc2OC)S(=O)(=O)c2ccccc2)CC1 -2.6%, CCCOC(=O)c1ccc(NC(=O)C2C3C=CC(O3)C2C(=O)O)cc1 (centres undefined) 5.5%, Cc1nn(-c2ccccc2)c(C)c1C(=O)OCC(=O)N1c2ccccc2NC(=O)C1(C)C -1%, COc1ccc(NC(=O)c2cccc(S(=O)(=O)N3CCOCC3)c2)cn1 1.5%, O=C(c1ccc(Cl)cc1)c1c[nH]c(C(=O)C(Cl)(Cl)Cl)c1 5.7%, COC(=O)c1ccc(/C=C(\C#N)c2nc3ccccc3s2)cc1 -0.9%

From PubChem BioAssay AID651664 (NMMLSC, 2012)
